Source: PubChem BioAssay AID330 (DTP/NCI, 2004)
The list does not hold the whole screen: it gathers some chemical classes. Other doses and runs of a compound may be missing. T/C: endpoint of the treated group in % of that of the vehicle group. For survival time, the PubChem record calls one and a half times the control and up active, and a quarter to a half above the control has no call in these data; cut-offs in other NCI protocols can differ. Schedule codes are those of the source, read here as Q, the interval in days (D) or hours (H), X, the number of doses. Some doses were run more than once; the results are listed from low to high. Some T/C values are marked as having no survivor count here; that says nothing about deaths at the dose.

Tested on: P388 leukemia ip, CD2F1 mice, survival T/C
Test: NCI In Vivo Anticancer Drug Screen. Data for tumor model P388 Leukemia (intraperitoneal) in CD2F1 (CDF1) mice
Details: T/C endpoint: median survival time, higher T/C = longer survival
[1] = dose: 25.0 mg/kg/injection, schedule: Q04DX003 (ip), vehicle: saline
[2] = dose: 0.6 mg/kg/injection, schedule: Q01DX009 (ip), vehicle: saline
[3] = dose: 2.6 mg/kg/injection, schedule: Q01DX009 (ip), vehicle: saline
[4] = dose: 6.25 mg/kg/injection, schedule: Q01DX009 (ip), vehicle: saline
[5] = dose: 12.5 mg/kg/injection, schedule: Q01DX009 (ip), vehicle: saline

ClCCNCCCCNCCCl
T/C (dose: 2.9 mg/kg/injection, schedule: Q01DX009 (ip), vehicle: saline): 115 % of control [survivor count not shown]
T/C (dose: 4.4 mg/kg/injection, schedule: Q01DX009 (ip), vehicle: saline): 113 % of control [survivor count not shown]
T/C (dose: 6.25 mg/kg/injection, schedule: Q04DX003 (ip), vehicle: saline): 95 % of control [survivor count not shown]
T/C (dose: 6.6 mg/kg/injection, schedule: Q01DX009 (ip), vehicle: saline): 123 % of control [survivor count not shown]
T/C (dose: 8.8 mg/kg/injection, schedule: Q01DX009 (ip), vehicle: saline): 131 % of control [survivor count not shown]
T/C (dose: 10.0 mg/kg/injection, schedule: Q01DX009 (ip), vehicle: saline): 135 % of control [survivor count not shown]
T/C (dose: 12.5 mg/kg/injection, schedule: Q04DX003 (ip), vehicle: saline): 100 % of control [survivor count not shown]
T/C (dose: 13.2 mg/kg/injection, schedule: Q01DX009 (ip), vehicle: saline): 154 % of control [survivor count not shown]
T/C (dose: 20.0 mg/kg/injection, schedule: Q01DX009 (ip), vehicle: saline): 168 % of control [survivor count not shown]
T/C [1]: 145 % of control [survivor count not shown]
T/C (dose: 30.0 mg/kg/injection, schedule: Q01DX009 (ip), vehicle: saline): 200 % of control [survivor count not shown]
T/C (dose: 44.0 mg/kg/injection, schedule: Q04DX003 (ip), vehicle: saline): 245 % of control [survivor count not shown]
T/C (dose: 50.0 mg/kg/injection, schedule: Q04DX003 (ip), vehicle: saline): 180 % of control [survivor count not shown]
T/C (dose: 66.0 mg/kg/injection, schedule: Q04DX003 (ip), vehicle: saline): 227 % of control [survivor count not shown]
T/C (dose: 100.0 mg/kg/injection, schedule: Q04DX003 (ip), vehicle: saline): 213 % of control [survivor count not shown]
T/C (dose: 150.0 mg/kg/injection, schedule: Q04DX003 (ip), vehicle: saline): 118 % of control [survivor count not shown]

BrCCN(CCBr)Cc1ccccc1
T/C [2]: 137 [survivor count not shown] and 162 % of control [survivor count not shown]
T/C (dose: 1.3 mg/kg/injection, schedule: Q01DX009 (ip), vehicle: saline): 152 [survivor count not shown] and 162 % of control [survivor count not shown]
T/C [3]: 90 [survivor count not shown], 135 [survivor count not shown], 174 % of control [survivor count not shown]
T/C (dose: 2.6 mg/kg/injection, schedule: Q04DX003 (ip), vehicle: saline): 143 [survivor count not shown] and 165 % of control [survivor count not shown]
T/C (dose: 4.0 mg/kg/injection, schedule: Q04DX003 (ip), vehicle: saline): 146 [survivor count not shown] and 171 % of control [survivor count not shown]
T/C (dose: 6.0 mg/kg/injection, schedule: Q04DX003 (ip), vehicle: saline): 123 [survivor count not shown] and 153 % of control [survivor count not shown]
T/C (dose: 9.0 mg/kg/injection, schedule: Q04DX003 (ip), vehicle: saline): 109 % of control [survivor count not shown]

Cc1cc(C)cc(CN(CCCl)CCCl)c1
T/C (dose: 1.7 mg/kg/injection, schedule: Q01DX009 (ip), vehicle: saline): 138 % of control [survivor count not shown]
T/C [3]: 142 % of control [survivor count not shown]
T/C [4]: 150 % of control [survivor count not shown]
T/C (dose: 6.25 mg/kg/injection, schedule: Q04DX003 (ip), vehicle: saline with Tween-80): 118 % of control [survivor count not shown]
T/C [5]: 170 % of control [survivor count not shown]
T/C (dose: 12.5 mg/kg/injection, schedule: Q04DX003 (ip), vehicle: saline with Tween-80): 127 % of control [survivor count not shown]
T/C (dose: 18.75 mg/kg/injection, schedule: Q04DX003 (ip), vehicle: saline): 154 % of control [survivor count not shown]
T/C (dose: 25.0 mg/kg/injection, schedule: Q04DX003 (ip), vehicle: saline with Tween-80): 127 % of control [survivor count not shown]
T/C (dose: 28.13 mg/kg/injection, schedule: Q04DX003 (ip), vehicle: saline): 150 % of control [survivor count not shown]

C=CCN1CCC(COC(=O)C(O)(c2ccccc2)c2ccccc2)C1 (stereo not given)
T/C (dose: 100.0 mg/kg/injection, schedule: Q01DX001 (ip), vehicle: saline): 101 % of control
T/C (dose: 200.0 mg/kg/injection, schedule: Q01DX001 (ip), vehicle: saline): 95 % of control
T/C (dose: 400.0 mg/kg/injection, schedule: Q01DX001 (ip), vehicle: saline): 95 % of control

FCCNCCCl
T/C (dose: 6.25 mg/kg/injection, schedule: Q01DX009 (ip), vehicle: alcohol): 127 % of control [survivor count not shown]

C=C(C)C#CC(O)(C(=O)OC1CCN(C)CC1)c1ccccc1 (stereo not given)
T/C (dose: 50.0 mg/kg/injection, schedule: Q01DX009 (ip), vehicle: saline): 105 % of control [survivor count not shown]
T/C (dose: 100.0 mg/kg/injection, schedule: Q01DX009 (ip), vehicle: saline): 96 % of control [survivor count not shown]
T/C (dose: 200.0 mg/kg/injection, schedule: Q01DX009 (ip), vehicle: saline): 98 % of control [survivor count not shown]

ClCCN(CCCl)C1CCCCC1
T/C [2]: 98 % of control [survivor count not shown]
T/C (dose: 0.62 mg/kg/injection, schedule: Q01DX009 (ip), vehicle: saline): 99 % of control [survivor count not shown]
T/C (dose: 1.25 mg/kg/injection, schedule: Q01DX009 (ip), vehicle: saline): 110 [survivor count not shown] and 111 % of control [survivor count not shown]
T/C (dose: 2.5 mg/kg/injection, schedule: Q01DX009 (ip), vehicle: saline): 129 [survivor count not shown] and 135 % of control [survivor count not shown]
T/C (dose: 5.0 mg/kg/injection, schedule: Q01DX009 (ip), vehicle: saline): 138 [survivor count not shown] and 141 % of control [survivor count not shown]

CN(C)CCOC(=O)C(O)(c1ccccc1)c1ccccc1
T/C [4]: 96 % of control [survivor count not shown]
T/C [5]: 100 % of control [survivor count not shown]
T/C (dose: 25.0 mg/kg/injection, schedule: Q01DX009 (ip), vehicle: saline): 105 [survivor count not shown] and 108 % of control [survivor count not shown]

O=C1c2ccccc2C(=O)N1CN(CCCl)CCCl
T/C (dose: 12.5 mg/kg/injection, schedule: Q01DX005 (ip), vehicle: Klucel (hydroxypropylcellulose) (HPC)): 108 % of control
T/C (dose: 25.0 mg/kg/injection, schedule: Q01DX005 (ip), vehicle: Klucel (hydroxypropylcellulose) (HPC)): 117 % of control
T/C (dose: 50.0 mg/kg/injection, schedule: Q01DX005 (ip), vehicle: Klucel (hydroxypropylcellulose) (HPC)): 119, 134, 135 % of control
T/C (dose: 100.0 mg/kg/injection, schedule: Q01DX005 (ip), vehicle: Klucel (hydroxypropylcellulose) (HPC)): 128 and 163 % of control
T/C (dose: 200.0 mg/kg/injection, schedule: Q01DX005 (ip), vehicle: Klucel (hydroxypropylcellulose) (HPC)): 182 and 216 % of control
T/C (dose: 400.0 mg/kg/injection, schedule: Q01DX005 (ip), vehicle: Klucel (hydroxypropylcellulose) (HPC)): 94 % of control

OC1(C#CCN(CCCl)CCCl)CCCCC1
T/C (dose: 6.25 mg/kg/injection, schedule: Q01DX009 (ip), vehicle: saline with Tween-80): 159 % of control [survivor count not shown]
T/C (dose: 8.0 mg/kg/injection, schedule: Q01DX009 (ip), vehicle: saline): 118 % of control [survivor count not shown]
T/C (dose: 12.0 mg/kg/injection, schedule: Q01DX009 (ip), vehicle: saline): 118 % of control [survivor count not shown]
T/C (dose: 12.5 mg/kg/injection, schedule: Q01DX009 (ip), vehicle: saline with Tween-80): 181 % of control [survivor count not shown]
T/C (dose: 18.0 mg/kg/injection, schedule: Q01DX009 (ip), vehicle: saline): 90 % of control [survivor count not shown]
T/C (dose: 25.0 mg/kg/injection, schedule: Q01DX009 (ip), vehicle: saline with Tween-80): 86 % of control [survivor count not shown]
T/C [1]: 121 % of control [survivor count not shown]
